Assay results as given in PubChem BioAssay AID493014 (National Center for Advancing Translational Sciences (NCATS), 2011).
Some of the results follow. Further columns of the screen follow, without active or inactive calls. Compounds called inactive in the main read-out are mostly missing here. The note in brackets gives the kind of curve behind each potency; many fits are weak.

Experiment: qHTS Assay to Find Inhibitors of Chronic Active B-Cell Receptor Signaling
Details: ABC-DLBCL IkBa-CBG/CBR reporter, luminescence ratio (green luciferase fused to IkBa over red control in TMD8 lymphoma cells), 4 h; measured here: CBR red luminescence, cell number
How it was run: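 Cell line TMD8 (human ABC DLBCL), stably expressing tet-inducible CBG68-IkBa fusion and CBR; IMDM/0.5% FBS; cpd up to 46 uM; dox induction, 4 h, 37C/5% CO2; dual luminescence; green/red ratio; MG132 control.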
In the case of `OCCCNCc1ccc(N(c2ccccc2)c2ccccc2)cc1`, the AC50 is reported as 12.6 µM [falling, single point]. For `CSc1nc2ccc(NC(=O)c3cccs3)cc2s1`, the AC50 was 29.1 µM [falling, single point]. In the case of `CC(=O)NC(Cc1ccccc1)C(=O)NC1CCN(C(=O)c2cnccn2)CC1` (stereo not given), the AC50 is reported as 29.1 µM [rising, single point]. For `O=C(NCCS(=O)(=O)N1CCN(c2ccccc2)CC1)c1ccccc1F`, the AC50 was 7.31 µM [rising, partial curve, poor fit]. In the case of `C=CCC[C@@H](Cc1ccc(F)cc1)C(=O)OC[C@@H]1CCCN1C(=O)[C@@H](CC=C)CC(=O)N[C@@H](CO)Cc1ccccc1`, the AC50 is reported as 29.1 µM [falling, single point]. With `CCc1cccc(NC(=O)Cc2ccc([N+](=O)[O-])cc2)c1` the AC50 was 18.4 µM [rising, partial curve, poor fit]. For `Cc1nn(C)c(C(=O)Nc2ccn(Cc3ccccc3F)n2)c1[N+](=O)[O-]`, the AC50 was 3.16 µM [rising, single point]. For `CCOc1ccc(NC(=O)CSC2=Nc3ccccc3C3=NC(CCC(=O)NCc4ccco4)C(=O)N23)cc1` (stereo not given), the AC50 was 35.5 µM [rising, single point]. For `CC(/C=C/C1[C@H](C)C[C@H](O[C@@H]2O[C@H](CO)[C@@H](O)[C@H](O)[C@H]2O)CC1(C)C)O[C@H]1O[C@H](CO)[C@@H](O)[C@H](O)[C@H]1O` (stereo not given in full), the AC50 was 8.2 µM [rising, partial curve]. With `OC[C@@H](O)[C@H](O)C(/C=N/Nc1ccccc1)=N\Nc1ccccc1` the AC50 was 0.398 µM [rising, partial curve, poor fit]. For `CCCCOC(=O)c1ccc(NC(=O)CSc2nnnn2C)cc1`, the AC50 was 0.891 µM [rising, full curve, poor fit]. In the case of `Cc1ccnc(N/C=C/C(=O)c2ccc(Br)cc2)c1`, the AC50 is reported as 7.94 µM [falling, partial curve, poor fit]. In the case of `COc1cccc(CNC(=O)c2ccc(OCC(=O)N3CCOCC3)c(OC)c2)c1`, the AC50 is reported as 20.6 µM [rising, partial curve, poor fit]. With `CC(=O)/C(=N\Nc1ccc(Cl)cc1)Sc1nnc(-c2ccccc2)n1-c1ccccc1` the AC50 was 0.731 µM [rising, full curve, poor fit]. In the case of `Cc1ccc(C(=O)OCC(=O)NCc2cccs2)c(C)c1`, the AC50 is reported as 11.2 µM [falling, partial curve, poor fit]. In the case of `COc1ccc(/C=C/C(=O)Nc2cccc(C(C)=O)c2)cc1`, the AC50 is reported as 23.1 µM [falling, single point]. For `COc1ccc(C(CNc2ncnc3sc(C)c(C)c23)N(C)C)cc1` (stereo not given), the AC50 was 6.31 µM [rising, single point]. With `Cc1c(NC(=O)OCCNC(=O)COc2ccc(Cl)cc2Cl)sc(=S)n1C` the AC50 was 9.2 µM [rising, partial curve]. With `O=C(O)C1CCN(C(=O)COc2ccc3c(c2)oc(=O)c2ccccc23)CC1` the AC50 was 10 µM [falling, partial curve]. For `CCn1cc(C(=O)N[C@@H](CCSC)C(=O)NCCCOC)c(=O)c2cc3c(cc21)OCO3`, the AC50 was 35.5 µM [rising, partial curve, poor fit]. For `Cc1nc(NC(C)C)c2cnn(CCc3ccccc3)c2n1`, the AC50 was 29.1 µM [falling, single point]. In the case of `CN1C(=O)/C(=C2\SC(N3CCCCCC3)=NC2=O)c2ccccc21`, the AC50 is reported as 4.11 µM [falling, single point]. For `COc1cccc(NC(=O)/C=C/c2ccco2)c1`, the AC50 was 7.94 µM [falling, partial curve]. With `CN1CCN(S(=O)(=O)c2ccc(N(C)Cc3ccc(C(F)(F)F)cc3)c([N+](=O)[O-])c2)CC1` the AC50 was 23.1 µM [falling, single point]. With `COc1ccc(C(=O)Nc2cc(Cl)ccc2OC(=O)c2ccc(OC)cc2)cc1` the AC50 was 0.141 µM [rising, full curve, poor fit]. With `O=C(NCCCn1ccnc1)c1cccc(S(=O)(=O)N2CCCCCC2)c1` the AC50 was 16.4 µM [rising, single point]. For `O=C(CCl)Nc1ccccc1C(=O)NCc1ccccc1`, the AC50 was 25.1 µM [falling, single point]. For `Cc1ccc(Sc2ncccc2C(=O)NCC(c2ccc(F)cc2)N2CCOCC2)c(C)c1` (stereo not given), the AC50 was 23.1 µM [rising, single point]. With `O=C(CN1C(=O)NC2(CCCCC2)C1=O)Nc1ccc(F)cc1` the AC50 was 15.8 µM [falling, partial curve]. In the case of `CCc1ccc2nc(N3CCN(C)CC3)c(C#N)cc2c1`, the AC50 is reported as 3.16 µM [rising, full curve, poor fit]. For `Cc1c(NC(=O)c2ccc(=O)oc2)c(=O)n(-c2ccccc2)n1C`, the AC50 was 29.1 µM [rising, partial curve, poor fit]. For `CCN(CC)CC#CCC(O)(c1ccccc1)C1CCCC1` (stereo not given), the AC50 was 0.461 µM [falling, full curve, poor fit]. For `CCN(CC)S(=O)(=O)c1cccc(C(=O)N/N=C/c2cccc(O)c2O)c1`, the AC50 was 23.1 µM [falling, single point]. For `O=C(CCN1C(=O)/C(=C\c2cccs2)SC1=S)Nc1nccs1`, the AC50 was 29.1 µM [falling, single point]. In the case of `CCCCNC(=O)C1CCN(c2nc(C)cc(C)n2)CC1`, the AC50 is reported as 2.51 µM [rising, partial curve, poor fit]. In the case of `Brc1ccccc1-c1nc(-c2ccccc2)no1`, the AC50 is reported as 2.59 µM [rising, partial curve]. For `O=C1c2c([N+](=O)[O-])cc([N+](=O)[O-])cc2S(=O)N1Cc1ccccc1` (stereo not given), the AC50 was 15.8 µM [rising, single point]. With `Cc1noc(C)c1C(=O)Nc1ccc(Cl)cc1C(F)(F)F` the AC50 was 5.62 µM [falling, single point]. In the case of `O=C(N/N=C/C=C/c1ccccc1[N+](=O)[O-])c1cccs1`, the AC50 is reported as 23.1 µM [falling, partial curve]. With `Cc1csc(CCc2nc(C)cs2)n1` the AC50 was 0.731 µM [falling, partial curve, poor fit].
